The other results are listed elsewhere or left out. Residues, ends and D or L forms follow the SMILES beside them. *: point of attachment. Cbz = O=C(OCc1ccccc1)*
Key:
Assay in all cases: log2 fold change, soluble protein after heating vs DMSO (PISA); higher = thermal stabilisation; K562 cells, 10 uM, 30 min; active = over 0.2 and 3.5 SD of the protein, either way, in both replicates (recomputed)
IRAK-1-4 Inhibitor I = compound: C1COCCN1CCN2C3=CC=CC=C3N=C2NC(=O)C4=CC(=CC=C4)[N+](=O)[O-] [IRAK-1-4 Inhibitor I]
Method in brief: (§1)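 Aliquots of K562 cells (2×10^6 cells/mL) treated with 10 μM compound for 30 min were heated for 3 min over 48°C-58°C. After pooling and extraction in PBS with 0.5% NP-40 at 4°C, soluble protein from a 21,000xg, 90 min spin was quantified by TMTpro 16plex LC-MS/MS with channel sums equalised. Thermal stability is expressed against control samples, from duplicates, as a log2 fold change.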

By UniProt entry, the sequences of proteins in these tests, tags left out. Where a name states a change or a piece, a line headed by the entry shows the natural chain unless it says otherwise.
UniProt O95249: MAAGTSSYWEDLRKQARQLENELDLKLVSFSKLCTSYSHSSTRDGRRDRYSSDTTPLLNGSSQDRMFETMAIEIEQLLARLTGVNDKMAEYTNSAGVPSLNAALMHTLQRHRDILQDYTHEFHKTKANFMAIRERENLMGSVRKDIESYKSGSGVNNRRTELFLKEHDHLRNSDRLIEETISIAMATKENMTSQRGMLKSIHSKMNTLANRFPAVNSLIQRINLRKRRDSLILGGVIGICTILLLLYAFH
UniProt Q8IXQ4: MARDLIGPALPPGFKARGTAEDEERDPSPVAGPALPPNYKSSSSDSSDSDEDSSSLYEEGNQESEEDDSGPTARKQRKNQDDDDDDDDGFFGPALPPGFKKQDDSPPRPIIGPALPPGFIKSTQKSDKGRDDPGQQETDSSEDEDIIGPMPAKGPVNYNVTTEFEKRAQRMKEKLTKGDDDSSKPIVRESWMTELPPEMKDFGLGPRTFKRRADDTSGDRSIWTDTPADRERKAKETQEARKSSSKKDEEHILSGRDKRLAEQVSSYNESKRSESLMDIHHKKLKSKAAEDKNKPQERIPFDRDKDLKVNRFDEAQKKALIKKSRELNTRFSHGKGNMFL
UniProt Q4V328: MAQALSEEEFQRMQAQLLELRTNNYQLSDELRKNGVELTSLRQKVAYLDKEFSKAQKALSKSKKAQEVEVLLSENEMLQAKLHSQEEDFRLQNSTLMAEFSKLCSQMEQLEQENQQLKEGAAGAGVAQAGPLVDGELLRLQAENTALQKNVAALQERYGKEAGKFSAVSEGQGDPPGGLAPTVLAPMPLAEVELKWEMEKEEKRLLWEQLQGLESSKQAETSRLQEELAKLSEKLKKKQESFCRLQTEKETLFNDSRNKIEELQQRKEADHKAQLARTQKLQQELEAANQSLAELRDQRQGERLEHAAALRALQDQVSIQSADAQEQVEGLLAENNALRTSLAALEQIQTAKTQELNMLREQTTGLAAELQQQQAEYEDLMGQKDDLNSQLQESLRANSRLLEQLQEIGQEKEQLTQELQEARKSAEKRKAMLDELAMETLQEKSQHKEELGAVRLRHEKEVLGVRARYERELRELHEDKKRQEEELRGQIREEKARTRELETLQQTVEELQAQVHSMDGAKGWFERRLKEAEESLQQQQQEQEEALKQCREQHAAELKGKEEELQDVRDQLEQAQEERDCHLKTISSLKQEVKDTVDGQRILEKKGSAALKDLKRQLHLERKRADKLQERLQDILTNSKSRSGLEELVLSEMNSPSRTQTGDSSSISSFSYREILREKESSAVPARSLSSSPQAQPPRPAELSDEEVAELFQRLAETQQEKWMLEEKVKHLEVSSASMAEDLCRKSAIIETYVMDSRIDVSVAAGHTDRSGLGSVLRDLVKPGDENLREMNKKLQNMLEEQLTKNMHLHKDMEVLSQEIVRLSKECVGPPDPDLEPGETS
UniProt O14908: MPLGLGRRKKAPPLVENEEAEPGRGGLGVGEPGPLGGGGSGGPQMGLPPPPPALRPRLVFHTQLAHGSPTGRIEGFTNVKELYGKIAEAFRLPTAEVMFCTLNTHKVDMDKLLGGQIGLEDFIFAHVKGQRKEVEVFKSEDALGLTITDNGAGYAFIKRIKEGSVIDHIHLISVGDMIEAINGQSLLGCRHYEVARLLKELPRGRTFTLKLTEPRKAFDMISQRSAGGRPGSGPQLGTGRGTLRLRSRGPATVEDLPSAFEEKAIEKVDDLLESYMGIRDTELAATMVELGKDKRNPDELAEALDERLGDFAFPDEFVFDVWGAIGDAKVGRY
UniProt O75791: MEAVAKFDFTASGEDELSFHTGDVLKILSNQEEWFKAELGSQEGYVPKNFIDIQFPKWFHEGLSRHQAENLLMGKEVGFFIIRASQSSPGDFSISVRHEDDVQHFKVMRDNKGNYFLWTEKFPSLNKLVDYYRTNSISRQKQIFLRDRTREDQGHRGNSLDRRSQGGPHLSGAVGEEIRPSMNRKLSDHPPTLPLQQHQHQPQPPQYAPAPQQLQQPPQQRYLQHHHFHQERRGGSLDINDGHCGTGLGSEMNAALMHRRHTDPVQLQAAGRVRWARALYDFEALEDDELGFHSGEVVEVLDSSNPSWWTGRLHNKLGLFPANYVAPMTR
UniProt Q14691: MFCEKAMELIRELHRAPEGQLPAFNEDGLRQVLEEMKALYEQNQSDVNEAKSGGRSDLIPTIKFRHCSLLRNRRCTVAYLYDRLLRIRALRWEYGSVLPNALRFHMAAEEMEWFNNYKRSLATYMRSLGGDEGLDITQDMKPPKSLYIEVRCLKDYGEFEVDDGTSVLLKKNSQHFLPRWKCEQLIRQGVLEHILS
UniProt O76003: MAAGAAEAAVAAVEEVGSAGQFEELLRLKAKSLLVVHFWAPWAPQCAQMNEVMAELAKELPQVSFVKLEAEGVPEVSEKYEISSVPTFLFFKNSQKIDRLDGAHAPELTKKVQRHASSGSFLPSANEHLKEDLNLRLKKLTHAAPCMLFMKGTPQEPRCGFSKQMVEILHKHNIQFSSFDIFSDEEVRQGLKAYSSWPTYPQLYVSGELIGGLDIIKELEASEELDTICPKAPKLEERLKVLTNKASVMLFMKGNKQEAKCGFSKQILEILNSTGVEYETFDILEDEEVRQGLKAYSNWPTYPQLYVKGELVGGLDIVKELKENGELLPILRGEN
UniProt O60547: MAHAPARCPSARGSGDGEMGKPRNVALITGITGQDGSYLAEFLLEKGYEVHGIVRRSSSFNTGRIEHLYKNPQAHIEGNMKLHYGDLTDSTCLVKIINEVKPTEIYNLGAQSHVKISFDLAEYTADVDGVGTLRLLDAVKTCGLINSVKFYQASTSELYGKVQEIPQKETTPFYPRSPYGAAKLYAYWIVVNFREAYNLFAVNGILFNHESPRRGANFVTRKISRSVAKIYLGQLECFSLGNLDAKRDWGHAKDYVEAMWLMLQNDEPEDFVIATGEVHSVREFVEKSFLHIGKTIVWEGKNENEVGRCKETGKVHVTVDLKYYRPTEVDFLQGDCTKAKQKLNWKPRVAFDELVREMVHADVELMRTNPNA
UniProt P17174: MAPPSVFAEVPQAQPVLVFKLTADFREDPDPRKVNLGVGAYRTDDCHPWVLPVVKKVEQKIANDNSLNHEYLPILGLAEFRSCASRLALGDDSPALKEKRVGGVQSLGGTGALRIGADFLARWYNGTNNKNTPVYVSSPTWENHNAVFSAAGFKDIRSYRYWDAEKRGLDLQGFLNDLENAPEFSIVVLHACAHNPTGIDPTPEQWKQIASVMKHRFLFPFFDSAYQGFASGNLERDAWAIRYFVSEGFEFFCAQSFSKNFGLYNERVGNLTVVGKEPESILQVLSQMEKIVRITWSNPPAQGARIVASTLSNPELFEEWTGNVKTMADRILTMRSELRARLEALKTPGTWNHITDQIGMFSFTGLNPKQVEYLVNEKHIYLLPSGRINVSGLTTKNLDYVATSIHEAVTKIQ
UniProt Q96IJ6: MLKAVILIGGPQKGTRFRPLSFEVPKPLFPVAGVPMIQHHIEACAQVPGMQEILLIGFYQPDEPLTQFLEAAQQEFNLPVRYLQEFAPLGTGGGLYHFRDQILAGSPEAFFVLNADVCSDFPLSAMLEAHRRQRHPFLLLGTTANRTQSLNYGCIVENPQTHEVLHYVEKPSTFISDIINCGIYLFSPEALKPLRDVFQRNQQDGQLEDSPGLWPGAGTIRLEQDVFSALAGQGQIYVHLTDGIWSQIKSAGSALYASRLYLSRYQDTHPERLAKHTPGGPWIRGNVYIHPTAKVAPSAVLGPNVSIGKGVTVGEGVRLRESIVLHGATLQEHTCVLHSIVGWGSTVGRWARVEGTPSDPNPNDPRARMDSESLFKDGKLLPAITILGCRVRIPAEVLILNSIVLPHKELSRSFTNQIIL
UniProt P15104, whole entry, looked up: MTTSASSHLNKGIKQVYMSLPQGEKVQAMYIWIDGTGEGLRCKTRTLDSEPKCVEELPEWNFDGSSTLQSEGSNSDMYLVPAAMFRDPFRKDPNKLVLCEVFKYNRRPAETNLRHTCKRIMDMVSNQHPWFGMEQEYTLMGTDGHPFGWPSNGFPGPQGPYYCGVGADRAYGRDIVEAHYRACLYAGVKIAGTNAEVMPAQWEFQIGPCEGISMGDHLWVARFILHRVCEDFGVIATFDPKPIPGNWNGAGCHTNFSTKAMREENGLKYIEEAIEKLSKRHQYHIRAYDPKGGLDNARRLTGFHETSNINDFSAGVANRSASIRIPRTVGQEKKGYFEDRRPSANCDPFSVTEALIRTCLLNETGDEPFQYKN
UniProt P00505: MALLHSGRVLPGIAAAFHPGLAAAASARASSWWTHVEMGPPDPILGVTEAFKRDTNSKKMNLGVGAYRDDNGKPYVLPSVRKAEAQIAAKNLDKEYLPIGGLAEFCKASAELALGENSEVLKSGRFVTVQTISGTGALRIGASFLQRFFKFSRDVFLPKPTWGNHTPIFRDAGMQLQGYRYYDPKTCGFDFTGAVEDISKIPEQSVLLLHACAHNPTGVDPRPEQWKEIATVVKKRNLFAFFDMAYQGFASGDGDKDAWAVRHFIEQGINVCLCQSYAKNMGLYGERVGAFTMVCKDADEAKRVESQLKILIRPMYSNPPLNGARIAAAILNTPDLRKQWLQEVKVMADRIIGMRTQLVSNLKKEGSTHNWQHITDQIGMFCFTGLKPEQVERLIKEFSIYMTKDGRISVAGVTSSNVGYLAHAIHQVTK
UniProt Q9HC44: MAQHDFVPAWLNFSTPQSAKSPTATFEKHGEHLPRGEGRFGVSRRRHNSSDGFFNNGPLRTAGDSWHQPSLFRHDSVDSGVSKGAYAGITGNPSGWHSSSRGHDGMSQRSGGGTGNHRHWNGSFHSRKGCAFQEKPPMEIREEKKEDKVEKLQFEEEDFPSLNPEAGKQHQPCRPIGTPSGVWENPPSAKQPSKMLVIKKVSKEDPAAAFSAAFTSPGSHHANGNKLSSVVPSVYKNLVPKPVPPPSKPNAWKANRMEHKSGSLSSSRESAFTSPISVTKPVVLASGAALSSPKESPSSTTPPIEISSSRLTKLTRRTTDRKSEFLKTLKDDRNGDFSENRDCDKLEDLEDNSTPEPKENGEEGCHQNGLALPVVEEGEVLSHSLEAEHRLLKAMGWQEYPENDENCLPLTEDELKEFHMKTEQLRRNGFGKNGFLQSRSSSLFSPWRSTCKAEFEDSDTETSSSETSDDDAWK
UniProt P00367: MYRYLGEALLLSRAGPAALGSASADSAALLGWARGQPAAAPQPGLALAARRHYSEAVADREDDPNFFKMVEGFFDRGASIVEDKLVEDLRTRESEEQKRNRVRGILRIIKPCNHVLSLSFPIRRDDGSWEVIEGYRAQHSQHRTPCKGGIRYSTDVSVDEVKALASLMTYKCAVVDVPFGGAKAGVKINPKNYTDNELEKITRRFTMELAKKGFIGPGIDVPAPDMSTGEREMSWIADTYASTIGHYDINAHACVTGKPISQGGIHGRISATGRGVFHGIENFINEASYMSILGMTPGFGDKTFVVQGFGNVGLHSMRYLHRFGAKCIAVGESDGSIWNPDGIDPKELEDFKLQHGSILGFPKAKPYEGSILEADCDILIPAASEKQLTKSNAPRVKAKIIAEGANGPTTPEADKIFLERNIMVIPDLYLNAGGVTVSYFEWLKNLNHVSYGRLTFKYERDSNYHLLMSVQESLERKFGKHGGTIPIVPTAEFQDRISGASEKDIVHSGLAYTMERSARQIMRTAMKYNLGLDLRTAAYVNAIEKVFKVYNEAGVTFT
UniProt P62879, whole entry, looked up: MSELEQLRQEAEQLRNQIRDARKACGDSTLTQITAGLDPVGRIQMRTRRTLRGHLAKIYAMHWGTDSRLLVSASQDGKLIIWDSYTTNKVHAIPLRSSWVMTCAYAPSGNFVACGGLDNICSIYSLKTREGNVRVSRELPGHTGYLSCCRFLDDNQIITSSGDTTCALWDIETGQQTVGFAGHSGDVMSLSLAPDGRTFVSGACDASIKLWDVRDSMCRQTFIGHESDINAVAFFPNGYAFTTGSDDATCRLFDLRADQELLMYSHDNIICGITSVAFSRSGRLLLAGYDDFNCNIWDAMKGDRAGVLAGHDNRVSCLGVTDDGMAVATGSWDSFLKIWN
UniProt Q49A26: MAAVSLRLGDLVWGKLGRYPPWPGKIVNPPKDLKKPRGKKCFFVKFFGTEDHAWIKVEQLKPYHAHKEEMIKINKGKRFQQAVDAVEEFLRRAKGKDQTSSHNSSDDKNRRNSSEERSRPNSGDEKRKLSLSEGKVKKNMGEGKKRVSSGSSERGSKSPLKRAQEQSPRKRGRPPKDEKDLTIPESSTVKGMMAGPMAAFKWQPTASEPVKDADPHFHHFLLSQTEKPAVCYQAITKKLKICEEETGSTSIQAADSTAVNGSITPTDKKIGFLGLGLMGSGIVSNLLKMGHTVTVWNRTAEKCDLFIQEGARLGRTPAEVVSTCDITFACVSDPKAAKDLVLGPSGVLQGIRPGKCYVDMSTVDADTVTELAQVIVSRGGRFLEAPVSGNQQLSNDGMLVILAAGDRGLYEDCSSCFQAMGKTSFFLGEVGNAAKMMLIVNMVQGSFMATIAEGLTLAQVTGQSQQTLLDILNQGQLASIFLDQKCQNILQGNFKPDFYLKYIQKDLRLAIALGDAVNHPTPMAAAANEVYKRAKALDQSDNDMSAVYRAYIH

ibrutinib = compound: C=CC(=O)N1CCC[C@@H](n2nc(-c3ccc(Oc4ccccc4)cc3)c3c(N)ncnc32)C1 [ibrutinib]
Method in brief: as §1

[1] = compound: CC(=O)c1cnc2ccc(-c3cc(Cl)c(O)c(Cl)c3)nc2c1N[C@H]1CC[C@H](CN(C)C)CC1
Method in brief: as §1

ralimetinib = compound: CC(C)(C)Cn1c(N)nc2ccc(-c3[nH]c(C(C)(C)C)nc3-c3ccc(F)cc3)nc21 [ralimetinib]
Method in brief: as §1

[2] = compound: CC(C)(O)CC(=O)NCCn1ccc2ncnc(Nc3ccc(Oc4cccc(C(F)(F)F)c4)c(Cl)c3)c21
Method in brief: as §1

[3] = compound: CC(C)C1=C2N=C(C=C(N2N=C1)NCC3=CC=CC=C3)NCCCCCCN
Method in brief: as §1

[4] = compound: CC(C)C[C@@H](C=O)NC(=O)[C@H](CC(C)C)NC(=O)[C@H](CC(C)C)NC(=O)OCc1ccccc1
Method in brief: as §1

pinometostat = compound: CC(C)N(C[C@H]1O[C@@H](n2cnc3c(N)ncnc32)[C@H](O)[C@@H]1O)[C@H]1C[C@@H](CCc2nc3cc(C(C)(C)C)ccc3[nH]2)C1 [pinometostat]
Method in brief: as §1

[5] = compound: CC1=C(C(CC(=O)N1)C2=CC=C(C=C2)C(F)(F)F)C(=O)NC3=C(C=C4C(=C3)C=NN4)F
Method in brief: as §1

[6] = compound: CC1=C(C2=C(C=C1)C(=O)C3=CC=CC=C3N2CCCN)C
Method in brief: as §1

[7] = compound: CC1=C(C=C(C=C1)NC(=O)C2=CC(=CC=C2)C(C)(C)C#N)NC3=CC4=C(C=C3)N=CN(C4=O)C
Method in brief: as §1

[8] = compound: CC1=C(C=C(C=C1)NC(=O)C2=CC(=CC=C2)N(C)C)NC(=O)C3=CC=C(C=C3)O
Method in brief: as §1

[9] = compound: CC1=CC=C(C=C1)SC2=C3C=C(SC3=CN=C2)C(=O)N
Method in brief: as §1

[10] = compound: CC1=NC(=CC=C1)C2=C(N=C(N2)C(C)(C)C)C3=CC4=NC=CN=C4C=C3
Method in brief: as §1

Nexturastat A = compound: CCCCN(Cc1ccc(C(=O)NO)cc1)C(=O)Nc1ccccc1 [Nexturastat A]
Method in brief: as §1

vemurafenib = compound: CCCS(=O)(=O)Nc1ccc(F)c(C(=O)c2c[nH]c3ncc(-c4ccc(Cl)cc4)cc23)c1F [vemurafenib]
Method in brief: as §1

[11] = compound: CCCS(=O)(=O)Nc1ccc(F)c(C(=O)c2c[nH]c3ncc(Cl)cc23)c1F
Method in brief: as §1

[12] = compound: CCCc1cc(C)[nH]c(=O)c1CNC(=O)c1cc(-c2ccnc(N3CCN(C)CC3)c2)cc2c1cnn2C(C)C
Method in brief: as §1

givinostat = compound: CCN(CC)Cc1ccc2cc(COC(=O)Nc3ccc(C(=O)NO)cc3)ccc2c1 [givinostat]
Method in brief: as §1

barasertib = compound: CCN(CCCOc1ccc2c(Nc3cc(CC(=O)Nc4cccc(F)c4)[nH]n3)ncnc2c1)CCOP(=O)(O)O [barasertib]
Method in brief: as §1

Measured: log2 fold change

GOSR1 (UniProt O95249)
inactive: IRAK-1-4 Inhibitor I -0.001 | ibrutinib 0 | [1] -0.024 | ralimetinib -0.03 | [2] -0.058 | [3] -0.109 | [4] 0.009 | pinometostat -0.013 | [5] 0.02 | [6] -0.022 | [7] 0.007 | [8] 0.016 | [9] 0.017 | [10] 0.077 | Nexturastat A -0.02 | vemurafenib 0.036 | [11] 0.024 | [12] -0.02 | givinostat 0.021 | barasertib 0.003

GPALPP1 (UniProt Q8IXQ4)
inactive: IRAK-1-4 Inhibitor I 0.05 | ibrutinib -0.008 | [1] 0.005 | ralimetinib -0.045 | [2] 0.04 | [3] 0.031 | [4] 0.058 | pinometostat -0.015 | [5] -0.014 | [6] -0.045 | [7] -0.069 | [8] 0.122 | [9] -0.043 | [10] -0.06 | Nexturastat A 0.012 | vemurafenib -0.045 | [11] -0.029 | [12] -0.064 | givinostat 0.018 | barasertib -0.004

GRIPAP1 (UniProt Q4V328)
inactive: IRAK-1-4 Inhibitor I -0.026 | ibrutinib -0.043 | [1] 0.11 | ralimetinib 0.104 | [2] 0.026 | [3] -0.021 | [4] -0.032 | pinometostat -0.011 | [5] -0.071 | [6] -0.152 | [7] 0.011 | [8] 0.011 | [9] 0.012 | [10] 0.016 | Nexturastat A 0.03 | vemurafenib 0.036 | [11] 0.094 | [12] 0.045 | givinostat -0.005 | barasertib 0.032

GIPC1 (UniProt O14908)
inactive: IRAK-1-4 Inhibitor I 0 | ibrutinib 0.035 | [1] 0.033 | ralimetinib 0.027 | [2] -0.104 | [3] -0.049 | [4] 0.006 | pinometostat 0.026 | [5] -0.074 | [6] -0.02 | [7] 0.025 | [8] -0.052 | [9] 0.013 | [10] 0.003 | Nexturastat A 0.044 | vemurafenib 0.056 | [11] 0.066 | [12] -0.04 | givinostat 0.089 | barasertib 0.028

GRAP2 (UniProt O75791)
inactive: IRAK-1-4 Inhibitor I -0.027 | ibrutinib 0.078 | [1] -0.191 | ralimetinib 0.018 | [2] 0.011 | [3] -0.138 | [4] 0.13 | pinometostat 0.119 | [5] 0.064 | [6] -0.041 | [7] -0.183 | [8] -0.082 | [9] 0.014 | [10] -0.07 | Nexturastat A 0.067 | vemurafenib 0.069 | [11] 0.049 | [12] 0.087 | givinostat 0.156 | barasertib 0.046

Fetched one by one from above (2):
GIPC1 (UniProt O14908)
inactive: IRAK-1-4 Inhibitor I 0 | ibrutinib 0.035 | [1] 0.033 | ralimetinib 0.027 | [2] -0.104 | [3] -0.049 | [4] 0.006 | pinometostat 0.026 | [5] -0.074 | [6] -0.02 | [7] 0.025 | [8] -0.052 | [9] 0.013 | [10] 0.003 | Nexturastat A 0.044 | vemurafenib 0.056 | [11] 0.066 | [12] -0.04 | givinostat 0.089 | barasertib 0.028

GRIPAP1 (UniProt Q4V328)
inactive: IRAK-1-4 Inhibitor I -0.026 | ibrutinib -0.043 | [1] 0.11 | ralimetinib 0.104 | [2] 0.026 | [3] -0.021 | [4] -0.032 | pinometostat -0.011 | [5] -0.071 | [6] -0.152 | [7] 0.011 | [8] 0.011 | [9] 0.012 | [10] 0.016 | Nexturastat A 0.03 | vemurafenib 0.036 | [11] 0.094 | [12] 0.045 | givinostat -0.005 | barasertib 0.032

Additional records:

GINS1 (UniProt Q14691)
inactive: IRAK-1-4 Inhibitor I 0.058 | ibrutinib -0.016 | [1] 0.003 | ralimetinib 0.031 | [2] -0.035 | [3] -0.017 | [4] -0.016 | pinometostat -0.054 | [5] -0.011 | [6] 0.009 | [7] 0.027 | [8] -0.018 | [9] 0.063 | [10] 0.052 | Nexturastat A 0.023 | vemurafenib 0.059 | [11] 0.113 | [12] 0.005 | givinostat 0.001 | barasertib 0.027

GLRX3 (UniProt O76003)
inactive: IRAK-1-4 Inhibitor I -0.03 | ibrutinib -0.015 | [1] 0.02 | ralimetinib 0.002 | [2] -0.027 | [3] -0.024 | [4] -0.033 | pinometostat -0.033 | [6] -0.025 | [7] 0.007 | [8] -0.033 | [9] 0.02 | [10] 0.028 | Nexturastat A -0.049 | vemurafenib 0.024 | [11] 0.139 | [12] 0.014 | givinostat 0.01 | barasertib 0.054

GMDS (UniProt O60547)
inactive: IRAK-1-4 Inhibitor I 0.033 | ibrutinib 0.014 | [1] -0.005 | ralimetinib -0.054 | [2] -0.021 | [3] 0.056 | [4] -0.009 | pinometostat -0.044 | [5] 0.009 | [6] -0.002 | [7] -0.034 | [8] -0.011 | [9] 0.023 | [10] 0.017 | Nexturastat A -0.085 | vemurafenib -0.046 | [11] -0.008 | [12] -0.046 | givinostat -0.033 | barasertib -0.036

GOT1 (UniProt P17174)
inactive: IRAK-1-4 Inhibitor I 0.034 | ibrutinib -0.001 | [1] 0.028 | ralimetinib -0.044 | [2] 0.01 | [3] 0.05 | [4] -0.02 | pinometostat -0.069 | [5] -0.012 | [6] 0.02 | [7] -0.024 | [8] 0.018 | [9] 0.008 | [10] 0.009 | Nexturastat A -0.032 | vemurafenib 0.003 | [11] -0.025 | [12] 0.002 | givinostat 0.017 | barasertib 0.007

GMPPA (UniProt Q96IJ6)
inactive: IRAK-1-4 Inhibitor I 0.054 | ibrutinib 0.037 | [1] 0.044 | ralimetinib -0.028 | [2] -0.028 | [3] 0.034 | [4] -0.021 | pinometostat -0.048 | [5] 0.02 | [6] 0.12 | [7] -0.013 | [8] -0.014 | [9] 0.09 | [10] 0.025 | Nexturastat A -0.064 | vemurafenib 0.028 | [11] 0.064 | [12] -0.025 | givinostat -0.011 | barasertib 0.022

GLUL (UniProt P15104)
inactive: IRAK-1-4 Inhibitor I 0.054 | ibrutinib 0.009 | [1] -0.049 | ralimetinib -0.02 | [2] 0.018 | [3] 0.058 | [4] -0.013 | pinometostat -0.021 | [6] -0.058 | [7] -0.008 | [8] -0.003 | [9] 0.055 | [10] -0.013 | Nexturastat A -0.02 | vemurafenib -0.04 | [11] -0.084 | [12] -0.016 | givinostat -0.082 | barasertib 0.004

GOT2 (UniProt P00505)
inactive: IRAK-1-4 Inhibitor I 0.029 | ibrutinib 0.005 | [1] -0.005 | ralimetinib -0.035 | [2] 0.019 | [3] 0.076 | [4] -0.018 | pinometostat -0.065 | [5] 0.006 | [6] 0.001 | [7] -0.017 | [8] 0.018 | [9] 0.047 | [10] 0.003 | Nexturastat A -0.017 | vemurafenib 0.008 | [11] -0.031 | [12] -0.02 | givinostat -0.024 | barasertib 0.001

GPBP1L1 (UniProt Q9HC44)
inactive: IRAK-1-4 Inhibitor I -0.002 | ibrutinib 0.031 | [1] 0 | ralimetinib -0.101 | [2] -0.019 | [3] -0.013 | [4] 0.032 | pinometostat 0.104 | [5] 0.053 | [6] -0.098 | [7] -0.001 | [8] 0.01 | [9] -0.004 | [10] 0.034 | Nexturastat A 0.008 | vemurafenib -0.062 | [11] -0.052 | [12] -0.172 | givinostat 0.021 | barasertib 0

GLUD1 (UniProt P00367)
inactive: IRAK-1-4 Inhibitor I 0.02 | ibrutinib 0.04 | [1] 0.068 | ralimetinib 0.023 | [2] -0.038 | [3] -0.049 | [4] 0.012 | pinometostat 0.023 | [6] 0.125 | [7] 0.179 | [8] -0.007 | [9] -0.054 | [10] -0.011 | Nexturastat A -0.063 | vemurafenib -0.012 | [11] -0.02 | [12] 0.136 | givinostat -0.062 | barasertib -0.007

GNB2 (UniProt P62879)
inactive: IRAK-1-4 Inhibitor I -0.021 | ibrutinib 0.003 | [1] -0.013 | ralimetinib 0.016 | [2] 0.013 | [3] 0.022 | [4] -0.025 | pinometostat 0.016 | [6] 0.076 | [7] 0.11 | [8] 0.018 | [9] -0.053 | [10] -0.018 | Nexturastat A -0.023 | vemurafenib 0.044 | [11] 0.036 | [12] 0.012 | givinostat -0.019 | barasertib -0.042

GLYR1 (UniProt Q49A26)
active: Nexturastat A 0.375
inactive: IRAK-1-4 Inhibitor I -0.067 | ibrutinib -0.074 | [1] 0.054 | ralimetinib 0.088 | [2] 0.093 | [3] -0.057 | [4] 0.09 | pinometostat 0.111 | [6] -0.016 | [7] 0.039 | [8] 0.032 | [9] -0.125 | [10] -0.06 | vemurafenib 0.054 | [11] 0.009 | [12] 0.085 | givinostat 0.091 | barasertib 0.136

Reference: the supplement of paper PMC10849652
